From patent US20170189504A1, “NOVEL PEPTIDES AND COMBINATION OF PEPTIDES FOR USE IN IMMUNOTHERAPY AGAINST VARIOUS CANCERS” (immatics biotechnologies GmbH, priority 2015, published 2017)
For part of these data: Expression values are those of the mRNA of the gene that encodes the peptide; a gene is named only where it was looked up.

Assays:
source genes (mRNA) [1] = test: Gene and exon expression of source genes, TCGA tumor samples compared with normal tissue samples (Lonsdale, 2013) (Table 17); set-up: species or system human; settings: for Over-expression category of source gene (target coverage), BLCA: BLCA = Bladder urothelial carcinoma (N = 408); for Over-expression category of source gene (target coverage), BRCA: BRCA = Breast cancer (N = 1104), tumors more than 2-fold above highest 75% percentile of normal tissues; for Over-expression category of source gene (target coverage), CHOL: CHOL = Cholangiocarcinoma (N = 36); for Over-expression category of source gene (target coverage), COAD: COAD = Colon and rectal adenocarcinoma (N = 462); for Over-expression category of source gene (target coverage), DLBC: DLBC = Lymphoid neoplasm diffuse large B-cell lymphoma (N = 48); for Over-expression category of source gene (target coverage), ESCA: ESCA = Esophageal cancer (N = 185); for Over-expression category of source gene (target coverage), GBM: GBM = Glioblastoma multiforme (N = 169); for Over-expression category of source gene (target coverage), LAML: LAML = Acute Myeloid Leukemia (N = 173); for Over-expression category of source gene (target coverage), LIHC: LIHC = Liver hepatocellular carcinoma (N = 374); for Over-expression category of source gene (target coverage), LUAD: LUAD = Lung adenocarcinoma (N = 517); for Over-expression category of source gene (target coverage), LUSC: LUSC = Lung squamous cell carcinoma (N = 503); for Over-expression category of source gene (target coverage), OV: OV = Ovarian serous cystadenocarcinoma (N = 309); for Over-expression category of source gene (target coverage), PAAD: PAAD = Pancreatic ductal adenocarcinoma (N = 179); for Over-expression category of source gene (target coverage), READ: READ = Colon and rectal adenocarcinoma (N = 167); for Over-expression category of source gene (target coverage), SKCM: SKCM = Skin cutaneous melanoma (N = 473); for Over-expression category of source gene (target coverage), STAD: STAD = Stomach adenocarcinoma (N = 415); for Over-expression category of source gene (target coverage), UCEC: UCEC = Uterine corpus endometrial carcinoma (N = 546)
source genes (mRNA) [2] = test: Expression profiling of source genes by in-house RNASeq of tumor and normal tissues (Table 18, FIG. 2); set-up: species or system human; key: very highly over-expressed in tumors compared to a panel of normal tissues (+++); highly over-expressed in tumors compared to a panel of normal tissues (++); over-expressed in tumors compared to a panel of normal tissues (+); settings: source gene of peptide; for Expression score OC: ovarian cancer (N = 12) vs panel of normal tissues; for Expression score UEC: uterine cancer (N = 10) vs panel of normal tissues
HLA-A*02 = test: Identification and relative LC-MS quantitation of HLA-A*02-presented tumor-associated peptides on tissue samples (presentation profiles, Tables 13A, 13B, 15, FIG. 1); set-up: species or system human; key to Presentation score NHL / Presentation score CLL / Presentation score BRCA / Presentation score AML / Presentation score GB / Presentation score NSCLC / Presentation score GBC_CCC / Presentation score UEC / Presentation score MEL / Presentation score OSCAR / Presentation score GC / Presentation score UBC / Presentation score OC / Presentation score RCC / Presentation score CRC / Presentation score PCA / Presentation score HCC / Presentation score PC / Presentation score SCLC: specifically presented on tumors (++++); very highly over-presented on tumors compared to a panel of normal tissues (+++); highly over-presented on tumors compared to a panel of normal tissues (++); over-presented on tumors compared to a panel of normal tissues (+); settings: for Presentation score CRC: colorectal cancer (N = 28) vs panel of normal tissues (N = 262); for Peptide Presentation on cancer entities: HLA-A*02-binding tumor-associated peptides
[3] = Table 13A, cancer entities on which the peptide was found presented

| Substance | Over-expression category of source gene (target coverage), BLCA (source genes (mRNA) [1]; same cutoff) | Over-expression category of source gene (target coverage), BRCA (source genes (mRNA) [1]) | Over-expression category of source gene (target coverage), CHOL (source genes (mRNA) [1]; same cutoff) | Over-expression category of source gene (target coverage), COAD (source genes (mRNA) [1]; same cutoff) | Over-expression category of source gene (target coverage), DLBC (source genes (mRNA) [1]; same cutoff) | Over-expression category of source gene (target coverage), ESCA (source genes (mRNA) [1]; same cutoff) | Over-expression category of source gene (target coverage), GBM (source genes (mRNA) [1]; same cutoff) | Over-expression category of source gene (target coverage), LAML (source genes (mRNA) [1]; same cutoff) | Over-expression category of source gene (target coverage), LIHC (source genes (mRNA) [1]; same cutoff) | Over-expression category of source gene (target coverage), LUAD (source genes (mRNA) [1]; same cutoff) | Over-expression category of source gene (target coverage), LUSC (source genes (mRNA) [1]; same cutoff) | Over-expression category of source gene (target coverage), OV (source genes (mRNA) [1]; same cutoff) | Over-expression category of source gene (target coverage), PAAD (source genes (mRNA) [1]; same cutoff) | Over-expression category of source gene (target coverage), READ (source genes (mRNA) [1]; same cutoff) | Over-expression category of source gene (target coverage), SKCM (source genes (mRNA) [1]; same cutoff) | Over-expression category of source gene (target coverage), STAD (source genes (mRNA) [1]; same cutoff) | Over-expression category of source gene (target coverage), UCEC (source genes (mRNA) [1]; same cutoff) | Expression score OC (source genes (mRNA) [2]) | Presentation score CRC (HLA-A*02; HLA-A*02 peptides) | Peptide Presentation on cancer entities (HLA-A*02; [3]) | also measured |
| --- | --- | --- | --- | --- | --- | --- | --- | --- | --- | --- | --- | --- | --- | --- | --- | --- | --- | --- | --- | --- | --- |
| 292: peptide found in SLC35E1 (gene looked up) (GMMTAILGV; listed as Homo sapiens) [compound 292] | A (>=50% of tumors above the cutoff) | A (>=50% of tumors above the cutoff) | A (>=50% of tumors above the cutoff) | A (>=50% of tumors above the cutoff) | B (>= 20% of tumors above the cutoff, but <50%) | A (>=50% of tumors above the cutoff) | A (>=50% of tumors above the cutoff) | A (>=50% of tumors above the cutoff) | C (>=5% of tumors above the cutoff, but <20%) | A (>=50% of tumors above the cutoff) | A (>=50% of tumors above the cutoff) | A (>=50% of tumors above the cutoff) | A (>=50% of tumors above the cutoff) | A (>=50% of tumors above the cutoff) | A (>=50% of tumors above the cutoff) | A (>=50% of tumors above the cutoff) | A (>=50% of tumors above the cutoff) | + | +++ | GB, GC, NSCLC, HCC, PCA, CLL, UEC, GBC_CCC, RCC, CRC, PC, AML, NHL | Over-expression category of source gene (target coverage), KICH (source genes (mRNA) [1]; KICH = Kidney chromophobe (N = 66), same cutoff): A (>=50% of tumors above the cutoff); Over-expression category of source gene (target coverage), KIRC (source genes (mRNA) [1]; KIRC = Clear cell kidney carcinoma (N = 534), same cutoff): A (>=50% of tumors above the cutoff); Over-expression category of source gene (target coverage), KIRP (source genes (mRNA) [1]; KIRP = Papillary kidney carcinoma (N = 291), same cutoff): A (>=50% of tumors above the cutoff); Over-expression category of source gene (target coverage), LGG (source genes (mRNA) [1]; LGG = Lower grade glioma (N = 534), same cutoff): A (>=50% of tumors above the cutoff); Over-expression category of source gene (target coverage), PRAD (source genes (mRNA) [1]; PRAD = Prostate adenocarcinoma (N = 498), same cutoff): A (>=50% of tumors above the cutoff); Presentation score GBC_CCC (HLA-A*02; HLA-A*02 peptides, gallbladder adenocarcinoma and cholangiocarcinoma (N = 6) vs panel of normal tissues (N = 262)): +++; Presentation score GB (HLA-A*02; HLA-A*02 peptides, glioblastoma (N = 41) vs panel of normal tissues (N = 262)): +++; Presentation score NHL (HLA-A*02; HLA-A*02 peptides, non-Hodgkin lymphoma (N = 18) vs panel of normal tissues (N = 262)): ++; Presentation score NSCLC (HLA-A*02; HLA-A*02 peptides, non-small cell lung cancer (N = 90) vs panel of normal tissues (N = 262)): +++; Presentation score UEC (HLA-A*02; HLA-A*02 peptides, uterine cancer (N = 15) vs panel of normal tissues (N = 262)): +++ |
| 232: peptide found in GART (gene looked up) (KIFPAALQLV; listed as Homo sapiens) [compound 232] | A (>=50% of tumors above the cutoff) | B (>= 20% of tumors above the cutoff, but <50%) | B (>= 20% of tumors above the cutoff, but <50%) | A (>=50% of tumors above the cutoff) | A (>=50% of tumors above the cutoff) | B (>= 20% of tumors above the cutoff, but <50%) | C (>=5% of tumors above the cutoff, but <20%) | C (>=5% of tumors above the cutoff, but <20%) | C (>=5% of tumors above the cutoff, but <20%) | C (>=5% of tumors above the cutoff, but <20%) | B (>= 20% of tumors above the cutoff, but <50%) | B (>= 20% of tumors above the cutoff, but <50%) | C (>=5% of tumors above the cutoff, but <20%) | A (>=50% of tumors above the cutoff) | B (>= 20% of tumors above the cutoff, but <50%) | B (>= 20% of tumors above the cutoff, but <50%) | B (>= 20% of tumors above the cutoff, but <50%) | + | + | NSCLC, HCC, CLL, OC, SCLC, UBC, UEC, GBC_CCC, CRC, NHL | Expression score AML (source genes (mRNA) [2]; acute myeloid leukemia (N = 11) vs panel of normal tissues): +; Expression score CRC (source genes (mRNA) [2]; colorectal cancer (N = 20) vs panel of normal tissues): +; Expression score OSCAR (source genes (mRNA) [2]; esophageal cancer incl. gastric-esophageal junction (N = 11) vs panel of normal tissues): +; Expression score GBC_CCC (source genes (mRNA) [2]; gallbladder adenocarcinoma and cholangiocarcinoma (N = 3) vs panel of normal tissues): +; Expression score NHL (source genes (mRNA) [2]; non-Hodgkin lymphoma (N = 10) vs panel of normal tissues): ++; Expression score NSCLC (source genes (mRNA) [2]; non-small cell lung cancer (N = 11) vs panel of normal tissues): +; Expression score SCLC (source genes (mRNA) [2]; small cell lung cancer (N = 10) vs panel of normal tissues): +; Expression score UBC (source genes (mRNA) [2]; urinary bladder cancer (N = 10) vs panel of normal tissues): +; Expression score UEC (source genes (mRNA) [2]): +; Presentation score HCC (HLA-A*02; HLA-A*02 peptides, hepatocellular carcinoma (N = 16) vs panel of normal tissues (N = 262)): ++; Presentation score SCLC (HLA-A*02; HLA-A*02 peptides, small cell lung cancer (N = 19) vs panel of normal tissues (N = 262)): ++ |
| 100: peptide found in SLC18A2 (gene looked up) (ALLGMIIVGV; listed as Homo sapiens) [compound 100] |  |  |  |  |  |  |  |  |  |  |  |  |  |  |  |  |  |  |  | PCA, SCLC, BRCA | Target coverage: over-expression category of source gene, LAML (source genes (mRNA) [1]; Acute Myeloid Leukemia (N = 173), cutoff more than 2-fold above highest 75% percentile of normal tissue samples): C (>=5% of tumors above the cutoff, but <20%); Expression score HCC (source genes (mRNA) [2]; hepatocellular carcinoma (N = 15) vs panel of normal tissues): +++; Expression score PC (source genes (mRNA) [2]; pancreatic cancer (N = 26) vs panel of normal tissues): ++; Expression score PCA (source genes (mRNA) [2]; prostate cancer and benign prostate hyperplasia (N = 5) vs panel of normal tissues): +++; Expression score UEC (source genes (mRNA) [2]): +; Presentation score BRCA (HLA-A*02; HLA-A*02 peptides, breast cancer (N = 17) vs panel of normal tissues (N = 262)): +++; Peptide Presentation on cancer entities (HLA-A*02; Table 13B, presentation on additional cancer entities): HCC, AML |
